Measurements taken from article PMC9788671.
No constants are given. Whether binding was seen depends on the method and setting. Binding seen in cells or lysates may run through a third protein. Here binding means that the protein was enriched with, or labelled near, the bait; the list need not be complete. Values belong to the binder of their own block, whether it stands above or below them.

Amino acid sequences for entries named in this document (tags omitted).
UniProt Q9NZV8: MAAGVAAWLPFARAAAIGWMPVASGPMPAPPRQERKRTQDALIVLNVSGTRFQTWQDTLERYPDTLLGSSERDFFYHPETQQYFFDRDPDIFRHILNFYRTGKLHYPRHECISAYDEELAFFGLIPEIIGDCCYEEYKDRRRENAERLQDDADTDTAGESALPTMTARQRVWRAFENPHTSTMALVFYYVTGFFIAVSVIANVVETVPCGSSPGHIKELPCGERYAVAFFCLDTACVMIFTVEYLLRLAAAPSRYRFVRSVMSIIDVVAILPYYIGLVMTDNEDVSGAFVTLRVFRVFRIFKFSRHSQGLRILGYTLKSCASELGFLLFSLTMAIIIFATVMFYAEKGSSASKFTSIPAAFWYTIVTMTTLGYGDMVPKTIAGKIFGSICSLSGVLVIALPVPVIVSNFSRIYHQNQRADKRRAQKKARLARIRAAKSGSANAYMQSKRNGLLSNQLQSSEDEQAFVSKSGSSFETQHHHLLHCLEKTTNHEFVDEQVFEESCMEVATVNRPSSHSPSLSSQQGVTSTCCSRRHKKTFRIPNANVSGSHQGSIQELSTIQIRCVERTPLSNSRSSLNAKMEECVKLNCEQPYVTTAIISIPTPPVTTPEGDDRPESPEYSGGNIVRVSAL

Target: TAP-Kv4.2 (human) (UniProt Q9NZV8)
Test: affinity purification with mass spectrometry; TAP-Kv4.2 expressed by lentivirus in rat hippocampal neurons, harvested at DIV14; strong lysis buffer (1% Triton X-100, 0.5% deoxycholate in PBS, pH 7.4); streptavidin resin, then calmodulin resin; gel cut into high and low molecular weight fragments; no MS of the control sample

binding: binds
B1: Fam120a (protein, UniProt D4AB03 1-1116)
chain: MGVQGFQDYIEKHCPSAVVPVELQKLARGSLVGGGRQRPPQTPLRLLVDADNCLHRLYGGFYTDWVSGGQWNHMLGYLAALAKACFGGNIELFVFFNGALEKARLHEWVKRQGNERQTAQQIVSHVQNKGTPPPKVWFLPPVCMAHCIRLALIRFHVKVAQSIEDHHQEVIGFCRENGFHGLVAYDSDYALCNIPYYFSAHALKLSRNGKSLTTSQYLMHEVAKQLDLNPNRFPIFAALLGNHILPDEDLASFHWSLLGPEHPLASLKVRAHQLVLPPCDVVIKAVADYVRNIHDTSDLDAIAKDVFQHSQSRTDDKVIRFKRAVGYYSATSKPMPFHPPHYLPRPNPFGMPGMVPPYVPPQMLNIPQTSLQAKPAVPQVPSPGGTPGQAPYPYSLPEPALALDSSGKNLTEQNSYSNIPHEGKHTPLYERSSPINLAQSGSPNHVDSAYFPGSSTSSSSDNDEGSGGATNHISGNKIGWEKTGSHAEPLARGDPGDQVKVEGSSTASSGSQLAEGKGSHMGTVQPIPCLLSMPTRNHMDITTPPLPPVAPEVLRVAEHRHKKGLMYPYIFHVLTKGEIKIAVSIEDEANKDLPPAALLYRPVRQYVYGVLFSLAESRKKTERLAFRKNRLPPEFSPLIIKEWAAYKGKSPQTPELVEALAFREWTCPNLKRLWLGKAVEDKNRRMRAFLACMRSDTPAMLNPANVPTHLMVLCCVLRYMVQWPGARILRRQELDAFLAQALSPKLYEPDQLQELKIENLDPRGIQLSALFMSGVDMALFANDACGQPIPWEHCCPWMYFDGKLFQSKLLKASREKTPLIDLCDGQAEQAAKVEKMRQSILEGLNFSRQNHPLPFPPPPALPFYPASVYPRHFGPVPPSQGRGRGFAGVCGFGGHYGETVATGPYRAFRVTAASGHCGAFSGSDSNRTSKSQGGVQPIPSQGGKLEIAGTVVGHWAGSRRGRGGRGPFPLQVVSVGGPARGRPRGVISTPVIRTFGRGGRYYGRGYKSQGAIQGRPPYAASAEEVAKELKSKSGESKSSAVSSEGSLAENGVMAEEKPVPQLNGSTADTRAPSHSESALNNDSKTCNTNPHLNALSTDSACRREAALEAAVLNKEE

binding: binds
B2: Pkp4 (protein, UniProt F1M2K6 1-1146)
chain: MEELQFQRLTRELEVERQIVASQLERCRLGAESPSIASTSSTEKSFPWRSTDVPNTGVSKPRVSDTVHPNNYLIRTEPEQGALYSPEQTSLHERSLGNSRSSTQMNSYSDSGYQEAGSFHNSQTVNKADSRQHPFTGSTSNHVVRNSRAEGQTLVQPSVANRAMRRVSSVPSRAQSPSYVTSTGVSPSRGSLRTSLGSGFGSPSVTDSRPLNPSTYSSSTLPAQRAASPYSQRPASPTAVRRVGSVTSRQTSNPNGPVPQYQTTTRVGSPLTLTDAQTRVASPSQGQVGSSSPKRSGMTAVPQHLGPSLQRTVHDMDQFGQQQYDIYERMVPPRPDSLTGLRSSYASQHSQLGQDLRSAVSPDLHITPIYEGRTYYSPVYRSPNHGTVELQGSQTALYRTGSVGIGNLQRTSSQRSTLTYQRNNYALNTAATYAEPYRPVQYRVQECSYNRLPHTGPADDGATRSPSIDSIQKDPREFAWRDPELPEVIHMLQHQFPSVQANAAAYLQHLCFGDNKVKMEVYRLGGIKHLVDLLDHRVLEVQKNACGALRNLVFGKSTDENKIAMKNVGGIPALLRLLRKSIDAEVRELVTGVLWNLSSCDAVKMTIIRDALSTLTNTVIVPHSGWNDSSFDDDHKIKFQTSLVLRNTTGCLRNLSSAGEEARKQMRSCEGLVDSLLYVIHTCVNTSDYDSKTVENCVCTLRNLSYRLELEVPQARLLGLNELDDLLGKESPSKDSEPSCWGKKKKKKKRTPQEDQWDGVGPIPGLSKSPKGVEMLWHPSVVKPYLTLLAESSNPATLEGSAGSLQNLSAGNWKFAAYIRAAVRKEKGLPILVELLRMDNDRVVSSVATALRNMALDVRNKELIGKYAMRDLVNRLPGGNGPSILSDETVAAICCALHEVTSKNMENAKALADSGGIEKLVNITKGRGDRSSLKVVKAAAQVLNTLWQYRDLRSIYKKDGWNQNHFITPVSTLERDRFKSHPSLSTTNQQMSPVIQSVGSTSSSPALLGIREPRSEYDRTQPPMQYYNSQGDTTHKGLYPGSSKPSPIYISSYSSPAREQNRRLQHQQLYYQDDSTRKTLDAYRLYLQSPRSYEDPYGDDRVHFPASTDYSTQYGLKSTTNYVDFYSTKRPSYRAEQYPGSPDSWV
